Measured values published in PubChem BioAssay AID624405 (Broad Institute, 2012).
About 250 (13%) of roughly 1,900 compounds were called active. Roughly 4% stayed inconclusive and do not appear here.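 How the source made its calls: active means fitted curve reaches 40% rescue activity at or below the top valid dose, in every test run; inconclusive means test runs disagree, some active and some inactive; inactive means every run misses the threshold or moves the wrong way.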 This is a selection; strong and weak results do not stand in their true shares. Results with a measured potency or affinity are listed apart.

Experiment: suppressors of statin myotoxicity in myotubes, dose response, cell-based, C2C12 myotubes, ATP luminescence, cherry pick (AID 624405);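 further: myotubes are challenged with simvastatin at 10 µM to lower ATP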
Conditions: C2C12 myotubes + simvastatin, 48 h, scaled: DMSO wells 0, geranylgeraniol wells 100; at 19.5 µM (top of the series) unless noted

| SMILES | rescue activity (ATP increase) |
| --- | --- |
| Cn1c(-c2ccc(F)cc2)cnc1NCc1ccc(F)cc1 | inactive: -41.3% |
| Oc1ccc(C=NNc2nc3ccccc3s2)c(O)c1 | inactive: 0.517% |
| C[C@H](CO)N1C[C@H](C)[C@@H](CN(C)Cc2ccc(Oc3ccccc3)cc2)Oc2ccc(NC(=O)Cn3cnnn3)cc2CC1=O | inactive: 24.5% |
| COc1ccc(CN(C)C[C@@H]2Oc3ccc(NC(=O)Cc4cn(C)c5ccccc45)cc3CC(=O)N([C@H](C)CO)C[C@H]2C)cc1 | inactive: 25.8% |
| COc1ccccc1OCCNC1CCCC1 | inactive: 13% |
| C[C@H](CO)N1C[C@H](C)[C@@H](CN(C)Cc2ccc(Cl)c(Cl)c2)Oc2ccc(NS(=O)(=O)c3cccs3)cc2CC1=O | inactive: -10.7% |
| C[C@H](CO)N1C[C@H](C)[C@@H](CN(C)S(=O)(=O)c2cccs2)Oc2ccc(NC(=O)Nc3cccc4ccccc34)cc2C1=O | inactive: 24.4% |
| O=C(O)C1CCC(=O)N(C2CC2)C1c1ccccc1 (configuration not stated) | inactive: -7.94% |
| C[C@H]1CN([C@@H](C)CO)C(=O)c2cccc(NC(=O)C3CCCCC3)c2O[C@@H]1CN(C)S(=O)(=O)c1ccc(Cl)cc1 | inactive: 16.4% |
| COc1ccc(C(N)CCc2ccc(C)o2)cc1 (configuration not stated) | inactive: 20.9% |
| O=C(NCc1ccc(Cl)c(Cl)c1)c1cccnc1 | inactive: 20.5% |
| COc1cccc(CC(NC(C)=O)C(=O)NC2CCN(c3nc(C)cc(C)c3C#N)CC2)c1 (configuration not stated) | inactive: -23.4% |
| C[C@@H]1CN([C@H](C)CO)C(=O)c2cccc(NS(=O)(=O)c3cccs3)c2O[C@@H]1CN(C)S(=O)(=O)c1cccs1 | inactive: 16.3% |
| Cc1noc(C)c1S(=O)(=O)Nc1ccc2c(c1)CC(=O)N([C@H](C)CO)C[C@@H](C)[C@@H](CN(C)Cc1ccc(Cl)c(Cl)c1)O2 | inactive: 25.4% [at 21 µM] |
| CCOC(=O)c1c(NC(=O)CSc2nnc(C)c(=O)[nH]2)sc2c1CCC2 | inactive: -9.67% |
| CC(C)CNC(=O)CN(C1CCCCC1)S(=O)(=O)c1ccccc1 | inactive: -0.134% |
| C[C@@H]1CN([C@H](C)CO)C(=O)c2cc(NS(=O)(=O)c3ccc(Cl)cc3)ccc2O[C@@H]1CN(C)C(=O)Nc1ccccc1 | inactive: 1.03% |
| CC(=O)N1c2ccc(S(=O)(=O)NCCC(=O)NCCc3ccc(C)cc3)cc2CC1C (configuration not stated) | inactive: -9.48% |
| C[C@@H]1CCCCO[C@@H](CN(C)S(=O)(=O)c2ccc(Cl)cc2)[C@H](C)CN([C@@H](C)CO)C(=O)c2cc(NS(C)(=O)=O)ccc2O1 | inactive: -0.084% |
| C[C@H](CO)N1C[C@H](C)[C@@H](CN(C)S(=O)(=O)c2ccc(F)cc2)Oc2ccc(NC(=O)Cc3cn(C)c4ccccc34)cc2CC1=O | inactive: 3.11% |
| Cc1cccc(NCCNc2cccc(C)c2)c1 | inactive: -5.24% |
| CCC(C)(CCNC(=O)Cc1ccccc1)c1ccccc1OC (configuration not stated) | inactive: 7.25% |
| Cc1ccc(C(=O)N(c2ccccn2)C(C)c2ccco2)cc1C (configuration not stated) | inactive: 9.09% |
| CC(C(=O)N1CCCc2ccccc21)N1C(=O)c2ccccc2C1=O (configuration not stated) | inactive: -3.35% |

| SMILES | rescue activity (ATP increase) |
| --- | --- |
| CC(C)NC(=O)NC(=O)COC(=O)c1ccc(NC(=O)CC#N)cc1 | inactive: 0.166% |
| COc1ccc(NC(=O)Cn2ccc(C(F)(F)F)n2)cc1S(=O)(=O)N1CCOCC1 | inactive: 16.8% |
| CCCNC(=O)c1ccc(CNc2c(N3CCC(C(=O)OCC)CC3)c(=O)c2=O)cc1 | inactive: -4.49% |
| COc1ccc(S(=O)(=O)Nc2ccc3c(c2)C(=O)N([C@@H](C)CO)C[C@@H](C)[C@@H](CN(C)C(=O)Nc2cccc4ccccc24)OCCCC[C@H](C)O3)cc1 | inactive: 10.9% |
| C[C@@H]1CCCCO[C@@H](CN(C)Cc2ccc(C(F)(F)F)cc2)[C@H](C)CN([C@@H](C)CO)C(=O)c2cc(NC(=O)CCC(F)(F)F)ccc2O1 | inactive: 27.3% |
| CN1C(=O)CC(N2CCN(c3ccccc3)CC2)C1=O (configuration not stated) | inactive: 8.75% |
| CCOc1ccc(S(=O)(=O)NCC(=O)N(C)Cc2cccnc2)cc1 | inactive: 15.8% |
| O=C(c1ccc2c(c1)C(=O)N(c1ccc(Cl)cc1)C2=O)N1CCN(c2ccccn2)CC1 | inactive: -6.89% |
| COC(=O)c1ccccc1COn1c(=O)c(C)[n+]([O-])c2ccccc21 | inactive: -9.34% |
| O=c1c2cnn(-c3ccc(F)cc3)c2ncn1Cc1ccccc1 | inactive: 15% |
| Cc1cc(Cl)c(S(=O)(=O)NCc2ccncc2)cc1OCC(N)=O | inactive: -0.604% |
| COc1ccc(C(=O)c2cn[nH]c2-c2cc(Cl)ccc2O)cc1 | inactive: 16.4% |
| O=C(NCCCCNC(=O)c1ccc(Cl)s1)c1ccc(Cl)s1 | inactive: 8.39% |
| CN1CCC(=NNC(=O)CN(c2ccc(Oc3ccccc3)cc2)S(C)(=O)=O)CC1 | inactive: 23.3% |
| C[C@H](CO)N1C[C@H](C)[C@H](CN(C)C(=O)Nc2ccc(C(F)(F)F)cc2)OCCCC[C@H](C)Oc2ccc(NC(=O)c3ccccc3)cc2C1=O | inactive: -9.02% |
| COCC(=O)Nc1nc(-c2ccc(C)cc2)c(C)s1 | inactive: 5.75% |
| COc1cccc(C#Cc2cnc3c(c2)C(=O)N([C@@H](C)CO)C[C@H](C)[C@H](CN(C)C(=O)C2CCC2)O3)c1 | inactive: 10.4% |
| C[C@@H]1CN([C@@H](C)CO)C(=O)Cc2cc(NS(=O)(=O)c3cn(C)cn3)ccc2O[C@H]1CN(C)Cc1ccc(-c2ccccc2)cc1 | inactive: 26.3% |
| O=C1c2ccccc2C(=O)N1CN(C(=O)COc1ccccc1)c1ccc(F)cc1 | inactive: 14.1% |
| COc1ccc(N=Cc2sc(O)c3ccccc23)cc1 | inactive: 19.5% |
| C[C@@H]1CN([C@H](C)CO)C(=O)c2cc(NC(=O)Cn3cnnn3)ccc2O[C@@H]1CN(C)Cc1ccc(C(=O)Nc2ccccc2N)cc1 | inactive: 30% |
| C[C@@H]1CN([C@@H](C)CO)C(=O)c2cc(NC(=O)Cc3cn(C)c4ccccc34)ccc2O[C@@H]1CN(C)S(=O)(=O)c1cccs1 | inactive: 21.2% |
| CCOc1cc2[nH]c(=S)n(CCOC)c(=O)c2cc1OCC | inactive: -1.84% |
| COCCn1nnnc1C(c1ccccc1)N1CCN(Cc2ccc3c(c2)OCO3)CC1 (configuration not stated) | inactive: 12.2% |

| SMILES | rescue activity (ATP increase) |
| --- | --- |
| O=c1[nH]c(N2CCOCC2)nc2c1CCCC2 | inactive: 36.9% |
| Cn1nnc2c(sc3nc(N4CCOCC4)c4c(c32)CCCC4)c1=O | inactive: 1.91% |
| c1cc2cc(-c3c(-c4ccc5c(c4)OCO5)noc3-c3ccsc3)ccc2[nH]1 | inactive: 4.15% |
| Cc1cc(N2CCN(c3ccccc3)CC2)n2nnnc2n1 | inactive: 7.84% |
| C[C@@H]1CN([C@H](C)CO)C(=O)Cc2cc(NC(=O)Nc3cccc4ccccc34)ccc2O[C@@H]1CN(C)S(=O)(=O)c1cccs1 | inactive: 9.53% |
| CCOC(=O)N1CCN(C(=O)Cc2ccsc2)CC1 | inactive: -30.6% |
| COc1ccc(C(=O)N2C[C@@H]3[C@H](c4ccccc42)[C@@H](CO)N3Cc2ccccc2)cc1 | inactive: -1.26% [at 21 µM] |
| COc1ccc(S(=O)(=O)N(C)C[C@@H]2OCCCC[C@H](C)Oc3ccc(NC(=O)Nc4c(C)noc4C)cc3C(=O)N([C@@H](C)CO)C[C@H]2C)cc1 | inactive: -10.9% |
| Cc1ccc2nc(Nc3ccccc3O)nc(-c3ccccc3)c2c1 | inactive: 26.1% |
| CCN(CC)Cc1csc2ccc(Br)cc12 | inactive: -7.24% |
| Cc1noc(C)c1NC(=O)Nc1ccc2c(c1)CC(=O)N([C@H](C)CO)C[C@H](C)[C@@H](CN(C)Cc1ccc(-c3ccccc3)cc1)O2 | inactive: 12.7% |
| CCOc1ccccc1NC(=O)Cn1cnc2c(cnn2-c2ccc(C)c(C)c2)c1=O | inactive: -30.8% |
| CCOC(=O)C1=NN(C(=O)Nc2ccc(OC)cc2)C2C(=O)N(c3cccc(C(F)(F)F)c3)C(=O)C12 (configuration not stated) | inactive: -0.776% |
| C[C@H](CO)N1C[C@H](C)[C@H](CN(C)Cc2ccc(Oc3ccccc3)cc2)Oc2ccc(NC(=O)Nc3ccc(F)cc3)cc2CC1=O | inactive: -9.22% [at 21 µM] |
| Cc1nc(CSc2ccc(Cl)cc2)cc(N2CC(C)OC(C)C2)n1 (configuration not stated) | inactive: -17.7% |
| Cc1nc2nc(CSc3nnc(C)s3)cc(=O)n2[nH]1 | inactive: 22.8% |
| COc1ccc(NC(=O)Nc2ccc3c(c2)C(=O)N([C@H](C)CO)C[C@@H](C)[C@@H](CN(C)Cc2ccc(C(F)(F)F)cc2)OCCCC[C@H](C)O3)cc1 | inactive: 8.75% [at 10 µM] |
| C[C@@H]1CCCCO[C@@H](CN(C)C(=O)C2CCCCC2)[C@H](C)CN([C@@H](C)CO)C(=O)c2cc(NC(=O)c3ccncc3)ccc2O1 | inactive: 23.3% |
| Cc1c(NC(=O)C(C)OC(=O)COc2cccc3c2OC(C)(C)C3)c(=O)n(-c2ccccc2)n1C (configuration not stated) | inactive: 16.2% |
| COc1cc(-c2noc(-c3ccccc3C(=O)NCc3ccco3)n2)cc(OC)c1OC | inactive: 15.9% |
| Cc1ccc(-c2csc(-c3c[nH]c4ccccc34)n2)cc1 | inactive: -86.9% |
| COc1ccc(S(=O)(=O)Nc2ccc3c(c2)C(=O)N([C@@H](C)CO)C[C@@H](C)[C@@H](CN(C)Cc2ccc4c(c2)OCO4)OCCCC[C@H](C)O3)cc1 | inactive: -18.4% |
| Cc1cc(NC(=O)COC(=O)C2CCN(C(=O)c3ccc(Cl)cc3)CC2)no1 | inactive: -12.9% |
| C[C@@H]1CCCCO[C@@H](CN(C)C(=O)Nc2cccc3ccccc23)[C@H](C)CN([C@@H](C)CO)C(=O)c2cc(NC(=O)c3ccncc3)ccc2O1 | inactive: 3.44% |

Part of the list above in order of formula weight, ascending.

| SMILES | rescue activity (ATP increase) |
| --- | --- |
| COc1ccccc1OCCNC1CCCC1 | inactive: 13% |
| O=C(O)C1CCC(=O)N(C2CC2)C1c1ccccc1 (configuration not stated) | inactive: -7.94% |
| CN1C(=O)CC(N2CCN(c3ccccc3)CC2)C1=O (configuration not stated) | inactive: 8.75% |
| Oc1ccc(C=NNc2nc3ccccc3s2)c(O)c1 | inactive: 0.517% |
| Cc1nc2nc(CSc3nnc(C)s3)cc(=O)n2[nH]1 | inactive: 22.8% |
| Cn1c(-c2ccc(F)cc2)cnc1NCc1ccc(F)cc1 | inactive: -41.3% |
| COC(=O)c1ccccc1COn1c(=O)c(C)[n+]([O-])c2ccccc21 | inactive: -9.34% |
| CC(C)CNC(=O)CN(C1CCCCC1)S(=O)(=O)c1ccccc1 | inactive: -0.134% |
| CCOc1ccc(S(=O)(=O)NCC(=O)N(C)Cc2cccnc2)cc1 | inactive: 15.8% |
| O=C1c2ccccc2C(=O)N1CN(C(=O)COc1ccccc1)c1ccc(F)cc1 | inactive: 14.1% |
| COc1ccc(C(=O)N2C[C@@H]3[C@H](c4ccccc42)[C@@H](CO)N3Cc2ccccc2)cc1 | inactive: -1.26% [at 21 µM] |
| Cc1c(NC(=O)C(C)OC(=O)COc2cccc3c2OC(C)(C)C3)c(=O)n(-c2ccccc2)n1C (configuration not stated) | inactive: 16.2% |
| C[C@H](CO)N1C[C@H](C)[C@@H](CN(C)S(=O)(=O)c2cccs2)Oc2ccc(NC(=O)Nc3cccc4ccccc34)cc2C1=O | inactive: 24.4% |
| C[C@@H]1CN([C@H](C)CO)C(=O)Cc2cc(NC(=O)Nc3cccc4ccccc34)ccc2O[C@@H]1CN(C)S(=O)(=O)c1cccs1 | inactive: 9.53% |
| C[C@@H]1CCCCO[C@@H](CN(C)Cc2ccc(C(F)(F)F)cc2)[C@H](C)CN([C@@H](C)CO)C(=O)c2cc(NC(=O)CCC(F)(F)F)ccc2O1 | inactive: 27.3% |
